From the supplement of paper PMC4683952
The list shows a part of the results. No stated cut-off is given here; in the data, active = 2 or more and inactive = the rest. This data set is noisy: repeats of one test often differ as much as different tests do.

system: Lgr5 (MarsCy1-Lgr5-EGFP, U2OS); test: cell-surface Lgr5 expression (SCi1 fluorescence, background-subtracted) relative to WT DMSO (fold of DMSO control); higher = more Lgr5 at the plasma membrane; conditions: U2OS MarsCy1-Lgr5-EGFP stable; treatment time: overnight; library: ActiProbe-5K (TimTec); 25 µM

cell-surface Lgr5 expression, inactive:
CCOC(=O)c1[nH]c(Cc2[nH]c(C(=O)OCC)c(C)c2CC)c(CC)c1C 0.875, O=C([O-])/C=C\c1c[nH]c2ccccc12.[Na+] 1.24, O=C(O)c1cc(=O)c2cc(Br)ccc2o1 1.28, Cc1cc(CO)c(C(=O)O)c(=O)[nH]1 1.33, CCNc1nc(NC(C)(C)C)nc(N2CCCC2)n1 1.87, CN(C)S(=O)(=O)NCC1CCCO1 (stereo not given) 1.09, CCN(CC)S(=O)(=O)C1CCS(=O)(=O)C1 (stereo not given) 1.44, Cn1cccc1/C=N\n1cnnc1 1.92, OCC(O)CN1CCc2ccccc21 (stereo not given) 1.25, CN(C)c1ccc(/C=C\C=N\NC2=NS(=O)(=O)c3ccccc32)cc1 0.777, Cc1cc(C)n(CC(=O)NN)c(=O)c1C#N 1.27, CCCCC(CC)C(=O)NC(C)COC (stereo not given) 0.992, OC1(C(F)(F)F)Oc2ccccc2-c2oncc21 (stereo not given) 0.913, CC1(C)CC(N2CCC(=O)NC2=S)CC(C)(C)N1 1.03, COc1cc2c(cc1NS(=O)(=O)c1ccc(OC)c3ccccc13)oc1ccccc12 1.09, O=[N+]([O-])c1cc2cccnc2c2ncccc12 0.363, CCn1nccc1C(=O)NC(Cn1cccn1)C(C)(C)C (stereo not given) 1.28, O=C(N/N=C\c1ccco1)N/N=C/c1ccco1 1.13, Fc1cccc(C2CCCN2)c1 (stereo not given) 1.28, C=CCN(CC=C)S(=O)(=O)c1ccc(OC)c2ncccc12 0.892, Cc1ccc(C(C2C(=O)CC(C)(C)CC2=O)C2C(=O)CC(C)(C)CC2=O)s1 1.46, COc1cc([N+](=O)[O-])c(OC)cc1Cl 1.4, Fc1ccc(/C=N/n2c(S)nnc2-c2ccncc2)cc1 0.76, Fc1ccc(N2CCN(Cn3cnc4ccccc43)CC2)cc1 1.15, NCC(c1cccs1)N1CCOCC1 (stereo not given) 1.28, C[N+](CCC#N)(CCC#N)Cc1ccccc1.[Cl-] 1.39, Cc1cc(-c2nnc3sc(Cc4cccs4)nn23)[nH]n1 1.28, O=S(=O)(Nc1ccc(Br)cc1)N1CCCC1 1.06, Sc1nc2cc(Cl)ccc2s1 1.08, Nc1ccc2c(c1)COc1ccccc1O2 1.1, Cc1cc(=O)n2c3c(cc(S(=O)(=O)NC4CC4)cc13)CC2 1.18, COc1ccc(C2C3CCC=C3C(C#N)=C(N)C2(C#N)C#N)c(OC)c1 (stereo not given) 1.2, CCCCS(=O)(=O)/C=C/C1C2C=CC(C2)C1S(=O)(=O)CCCC (stereo not given) 1.13, CCSc1nc2[nH]c(=O)cc(O)c2s1 1.17, COc1ccc2c(c1)N(C)/C(=C1/OC(=S)N(C)C1=O)S2 1.07, CCCCCCCCN1CNC(=S)NC1 1.21, COCCOCCOCCC(=O)NC1CC2CCC1(C)C2(C)C (stereo not given) 0.928, CCOC(=O)CN1C(=O)S/C(=C/c2ccc(Cl)s2)C1=O 1.17, CSc1nc2ccc(S(=O)(=O)N3CCc4ccccc43)cc2s1 1, CSc1ccc(/C=C2\CNCC3=C2OC(N)=C(C#N)C3c2ccc(SC)cc2)cc1 (stereo not given) 1.66, Cc1n[nH]c2c1C(c1ccoc1)C(C#N)=C(N)O2 (stereo not given) 1.07, CC(C)n1ncc(C(N)=O)c1N 1.02, NN1C(=O)CSC1=S 1.39, Cn1cc(CNC(=O)c2c(NC(=O)CCn3cc(Cl)c([N+](=O)[O-])n3)cnn2C)cn1 1.26, Nc1nc2cc3nc(N)sc3cc2s1 1.34, O=C(Nc1nnn[nH]1)C1CCCCC1 1.18, Cc1ccc2c(c1)/C(=C/c1ccc(Br)cc1)c1cccnc1-2 1.03, Nc1nc(CSc2ccccn2)nc(Nc2ccccc2)n1 1.44, N#Cc1ccc(C2Oc3ccccc3C3CC(c4ccccc4)=NN32)cc1 (stereo not given) 0.836, COC1OC(COC(C)=O)C(OC(C)=O)C(C#N)(C#N)C1OC(C)=O (stereo not given) 1.7, CCOC(=O)c1nnn(-c2nc(N3CCCC3)nc(N3CCCC3)n2)c1C 1.17, Cc1sc(C2C(C#N)=C(N)SC(N)=C2C#N)cc1Br 1, Nc1nonc1-c1ccc(F)cc1 1.06, O=C(Cn1nc([N+](=O)[O-])nc1Br)NC1CCCCC1 1.65, Cl.NNc1ccc2[nH]c(=O)[nH]c2c1 0.961, COc1ccc2nc(N)sc2c1 1.23, Cn1c(=O)[nH]c2c(Br)nccc21 1.27, O/N=C(Cl)/C(=N\O)c1ccccc1 1.23, O=C1C(N(CO)C(=O)NCO)N(CO)C(=O)N1CO (stereo not given) 1.05, O=C([O-])c1cc(-c2ccc3c(c2)OCO3)nc2ccc(Br)cc12 1.16, O=c1ccoc2c(Br)cc(Cl)cc12 1.37, Clc1ccc(Nc2nc3nonc3nc2Nc2ccc(Cl)cc2)cc1 1.04, CC(=O)Nc1nc(=O)c2ncn(C(C)=O)c2[nH]1 1.49, CCOC(=O)c1sc(NC(C)=O)c(C#N)c1C 1.42, O=[N+]([O-])c1ccc(NC2OC(CO)C(O)C2O)cc1 (stereo not given) 1.06, CC1C2CC(C(S(=O)(=O)N3CCOCC3)/C2=N/O)C1(C)C (stereo not given) 1.4, c1ccc2[nH]c(-c3cscn3)nc2c1 1.06, CCn1cc(S(=O)(=O)NCc2c(Br)cnn2CC)c(C)n1 1.22, FC(F)C(F)(F)Oc1ccc(CSc2nc3cc(Cl)cc(Cl)c3o2)cc1 1.23

cell-surface Lgr5 expression, active:
Cc1[nH]nc2c1C(c1ccc(Br)s1)C(C#N)=C(N)O2 (stereo not given) 2.54
